Measurements reported in PubChem BioAssay AID1224826 (NIAID, 2016).

Test: 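Knock-downs that raise or lower Tnf reporter signal after endotoxin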 (primary screen)
System: RAW264.7 G9 macrophages from mouse bearing reporters for p65 (GFP) and the Tnf promoter (mCherry)
Reagents: siRNA pool against mouse genes, 100 nM
Timing: 16 h of LPS stimulation, after 2 days of siRNA transfection
Treatment: bacterial lipopolysaccharide (Salmonella minnesota R595), 10 ng/ml
Measured: 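Imaged Tnf reporter mCherry in nuclei, minus background, normalised per plate to the median and expressed as robust z-scores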
Reading the numbers: Tnf reporter robust z-score: higher = stronger Tnf promoter reporter signal after LPS
Call rule: 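a well counts as active at a score of -1.3 or below (Tlr4 knock-down control median) or above 3 (raised signal); controls and wells holding fewer than 50 cells are excluded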
Meaning of the calls: active = Tnf reporter clearly lowered or raised; inactive = no clear change in Tnf reporter
This is a random part of about 17,000 reagents tested. In the full data, about 1,110 (6.6%) are marked active. 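Active means lowered or raised reporter signal; replicate intensities are raw and not normalised per plate.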 Unmarked entries are inactive. The numbers tell different reagents against one gene apart. Not all columns of the deposit are shown.

Tmem170
- Tnf reporter robust z-score: -1.58 (active)
- fewer than 50 cells in well: enough cells in well

Zfp54
- Tnf reporter robust z-score: -0.09
- fewer than 50 cells in well: enough cells in well

Fbxl20 #1
- fewer than 50 cells in well: fewer than 50 cells per well; well left out of calls

Fbxl20 #2
- Tnf reporter robust z-score: -0.42
- fewer than 50 cells in well: enough cells in well

Uri1
- Tnf reporter robust z-score: -0.05
- fewer than 50 cells in well: enough cells in well

Or1s2
- Tnf reporter robust z-score: 0.36
- fewer than 50 cells in well: enough cells in well

Plekho1
- Tnf reporter robust z-score: 1.04
- fewer than 50 cells in well: enough cells in well

Eeig1
- fewer than 50 cells in well: fewer than 50 cells per well; well left out of calls

Agrp
- Tnf reporter robust z-score: 0.92
- fewer than 50 cells in well: enough cells in well

Entries above whose target name begins with F or f (2):
Fbxl20 #1
- fewer than 50 cells in well: fewer than 50 cells per well; well left out of calls

Fbxl20 #2
- Tnf reporter robust z-score: -0.42
- fewer than 50 cells in well: enough cells in well

Continued:
Fbxo3
- Tnf reporter robust z-score: 0.13
- fewer than 50 cells in well: enough cells in well

Klhl4
- Tnf reporter robust z-score: 1.1
- fewer than 50 cells in well: enough cells in well

Or5w10
- Tnf reporter robust z-score: 0.8
- fewer than 50 cells in well: enough cells in well

Acadvl
- Tnf reporter robust z-score: -0.43
- fewer than 50 cells in well: enough cells in well

Sycp1
- Tnf reporter robust z-score: 0.63
- fewer than 50 cells in well: enough cells in well
